The target of this assay is phosphofurin acidic cluster sorting protein 2 (human (endogenous in HK-2)) (UniProt Q86VP3). As to the kind of experiment: co-IP; lysate of HK-2 cells stably expressing MAPK1, low glucose; anti-PACS-2 antibody overnight at 4°C, Protein A/G mag beads 5 h at 4°C; Western blot for MAPK1.

The chains behind the UniProt entries cited, without tags or fusion partners.
UniProt Q86VP3: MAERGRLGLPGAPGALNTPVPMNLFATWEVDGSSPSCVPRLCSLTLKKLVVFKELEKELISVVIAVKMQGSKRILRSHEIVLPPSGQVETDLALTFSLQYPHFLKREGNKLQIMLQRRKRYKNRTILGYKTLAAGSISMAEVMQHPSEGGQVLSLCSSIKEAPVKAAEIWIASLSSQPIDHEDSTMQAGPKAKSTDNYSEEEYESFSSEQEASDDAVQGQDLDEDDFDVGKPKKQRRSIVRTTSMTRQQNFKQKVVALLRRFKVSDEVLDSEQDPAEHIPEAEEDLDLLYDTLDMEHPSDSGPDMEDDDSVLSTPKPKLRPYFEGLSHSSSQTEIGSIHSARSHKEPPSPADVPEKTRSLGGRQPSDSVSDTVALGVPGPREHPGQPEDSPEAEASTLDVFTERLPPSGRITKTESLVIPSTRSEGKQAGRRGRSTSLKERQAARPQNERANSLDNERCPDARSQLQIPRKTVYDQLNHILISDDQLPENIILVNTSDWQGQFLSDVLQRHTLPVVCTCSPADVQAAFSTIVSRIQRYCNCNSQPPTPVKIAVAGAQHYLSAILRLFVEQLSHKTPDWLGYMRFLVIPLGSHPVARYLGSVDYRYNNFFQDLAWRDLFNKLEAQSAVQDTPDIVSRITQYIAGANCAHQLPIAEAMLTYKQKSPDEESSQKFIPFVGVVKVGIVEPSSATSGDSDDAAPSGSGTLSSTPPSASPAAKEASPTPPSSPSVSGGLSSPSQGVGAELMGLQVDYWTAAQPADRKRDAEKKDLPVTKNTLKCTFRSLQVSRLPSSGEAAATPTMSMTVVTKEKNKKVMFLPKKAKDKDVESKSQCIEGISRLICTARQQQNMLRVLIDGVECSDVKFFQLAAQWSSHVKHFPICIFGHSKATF
UniProt P28482: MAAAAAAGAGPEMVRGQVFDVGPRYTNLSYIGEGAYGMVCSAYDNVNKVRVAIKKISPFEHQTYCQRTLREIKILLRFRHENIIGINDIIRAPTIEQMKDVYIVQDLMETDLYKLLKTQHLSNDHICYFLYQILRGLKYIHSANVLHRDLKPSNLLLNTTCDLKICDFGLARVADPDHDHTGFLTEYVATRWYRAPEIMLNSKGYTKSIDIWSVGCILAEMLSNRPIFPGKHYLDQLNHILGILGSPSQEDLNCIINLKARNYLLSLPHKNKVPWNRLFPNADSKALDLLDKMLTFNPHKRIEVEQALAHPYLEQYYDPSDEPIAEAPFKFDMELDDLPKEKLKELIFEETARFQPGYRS

These are yes or no findings as the source states them, for the method shown. Binding seen in cells or lysates may run through a third protein. Some entries that bind do so weakly or less than the wild type.

Turning to “mitogen-activated protein kinase 1 (from UniProt P28482 1-360) (enzyme)”, the binding result was “binds”.

(Values after publication PMC10758092.)
